No constants are given. Whether binding was seen depends on the method and setting. Binding seen in cells or lysates may run through a third protein.
Molecular target: GST-nesprin-1-alpha2 lacking the 18-amino-acid STAR domain (STARdel, aa1-842 bait protein) (human) (UniProt Q8NF91)
Assay: pull-down; GST-tagged bait on glutathione beads, RIPA extract of human myotubes; pulled-down proteins probed by western blot; only the target purified

Sequences of proteins named here, by UniProt entry; tags and fusion partners are left off. Residues count along the entry.
UniProt P02545, residues 1-646: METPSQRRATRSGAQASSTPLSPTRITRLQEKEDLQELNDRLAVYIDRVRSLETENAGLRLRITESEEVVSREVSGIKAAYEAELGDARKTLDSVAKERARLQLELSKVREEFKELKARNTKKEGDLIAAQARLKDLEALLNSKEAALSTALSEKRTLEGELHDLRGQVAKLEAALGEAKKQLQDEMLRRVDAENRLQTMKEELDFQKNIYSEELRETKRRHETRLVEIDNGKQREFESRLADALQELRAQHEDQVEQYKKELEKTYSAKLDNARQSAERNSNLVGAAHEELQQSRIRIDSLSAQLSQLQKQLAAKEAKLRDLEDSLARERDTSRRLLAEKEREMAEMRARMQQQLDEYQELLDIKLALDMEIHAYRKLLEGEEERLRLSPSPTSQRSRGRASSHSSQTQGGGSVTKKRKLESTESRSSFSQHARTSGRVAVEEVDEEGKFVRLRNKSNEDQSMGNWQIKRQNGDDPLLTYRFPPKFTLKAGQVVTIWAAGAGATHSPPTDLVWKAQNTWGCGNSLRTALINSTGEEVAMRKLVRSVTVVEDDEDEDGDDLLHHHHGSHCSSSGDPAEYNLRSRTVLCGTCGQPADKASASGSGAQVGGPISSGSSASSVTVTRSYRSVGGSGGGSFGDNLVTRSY
UniProt Q07866: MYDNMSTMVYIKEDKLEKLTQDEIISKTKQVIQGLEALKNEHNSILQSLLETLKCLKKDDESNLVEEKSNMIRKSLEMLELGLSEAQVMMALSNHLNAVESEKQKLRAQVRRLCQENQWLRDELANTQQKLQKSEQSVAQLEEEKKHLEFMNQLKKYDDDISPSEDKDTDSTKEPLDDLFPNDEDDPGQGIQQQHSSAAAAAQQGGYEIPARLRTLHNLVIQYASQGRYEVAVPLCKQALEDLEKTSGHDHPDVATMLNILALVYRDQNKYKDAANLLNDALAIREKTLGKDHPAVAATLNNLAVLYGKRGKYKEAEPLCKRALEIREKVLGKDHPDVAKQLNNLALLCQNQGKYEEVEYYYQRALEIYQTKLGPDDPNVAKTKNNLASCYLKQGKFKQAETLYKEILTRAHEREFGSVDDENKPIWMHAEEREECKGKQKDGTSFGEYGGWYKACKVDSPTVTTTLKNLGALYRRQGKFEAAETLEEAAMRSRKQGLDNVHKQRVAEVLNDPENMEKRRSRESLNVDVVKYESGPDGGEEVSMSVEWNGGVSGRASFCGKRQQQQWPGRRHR

Substance | binding
lamin A/C (from UniProt P02545 1-646) | no binding
human kinesin light-chain (kinesin light chain 1, 72 kDa) (from UniProt Q07866 1-573) | no binding
